Results published in publication PMC7205486.
For at least one entry, the source does not settle the construct or the ends of the probe.

The chains behind the UniProt entries cited, without tags or fusion partners.
UniProt Q7WZ07, entry or part of it: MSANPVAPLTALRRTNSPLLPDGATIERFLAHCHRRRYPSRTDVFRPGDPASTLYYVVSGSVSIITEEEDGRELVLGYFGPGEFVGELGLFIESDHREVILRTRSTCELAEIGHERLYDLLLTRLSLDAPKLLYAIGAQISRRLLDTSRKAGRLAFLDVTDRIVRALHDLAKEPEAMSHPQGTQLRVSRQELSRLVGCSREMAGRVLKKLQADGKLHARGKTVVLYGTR

Target: Clp (GST-Clp) (Lysobacter enzymogenes OH11) (UniProt Q7WZ07)
Assay: EMSA
Conditions: Clp 0, 1, 2, 4, 8 uM, 50 ng probe; 10 mM Tris pH 7.5, 50 mM KCl, 1 mM DTT, 0.4% glycerol, 20 ul, 28 C 25-30 min; 5% native acrylamide gel, 0.5x TBE, 4 C; recombinant protein; residues 1-229; protein details: GST; label: none (SYBR green I stain); probe letters rebuilt from the primers and the genome

Sequence	binding result
TGCTCTAGAAGCAAGCCGGCGCGCTCCACCGGCAGCCCGCGGGCGGTCCGGCCGCCTTGCCCAGCCGGGCCGGAAGCCAAGCGGGCGCGATCCATTCTTTGACCGCGATTGCGGTATGGAGCGTGCGTGCGCAGACGCTGCGCGCTCAGAAATGCGCGTCGAGGAACGCCGCCGCCGCATCCGACAGGCCGACGACCTTGTCGGTGGCCTGGCGATAGAGCTTGAAGTTGAGTTCGGTCTGCGGCCGGCCGTCGTCCCACTGCGCATGCGGCTTGAGCTCGGCGCGGCCGAGCGGCCGCCGCGCGGTCGCGGTGCGGCGGATGCGCACGCTCACCCGCGGTGTCTGCCGCGCCACGCCCGGCCGCGGCGCCACCGCCTCGGCCGCGACCACGGTGCCGCGCGCGAACAGGCCGGCGCCGCCGGCGTTCTCGCTGGCGAACAGATAGACCGTATCGCCGGCGGCGATGCGCTTGCCGCCGTACATGGTCTTCTGCCTCGAGCGG (double strand) [pLe rpfB2 promoter]	binds
TGCTCTAGACACGGACGGTTCAAACTCATCGCGATCCCCTCTTTAATCGCTCGTCGATTTTCTGTCCGCTTGCCGCGAAGTGCGCCGGCGTACGGTGTGTTTTCTCGATTGGAGCATAGGCTCTAGCGGGTGGCAAGGCGGTGCCCGGCGGCGTTGTGGCGAGCGCCGCGGACCTGTCAGGATCGGCGGCAGCCGGGCTTGGCTCCGGCACGGACCGCGCGGCGCCGCGCCGCCGGCCGAGTGGGCGAACGGTCGTGCGAATACGTCCGTTGCAGCGTTCAGAAGGGGAAATCCGCCATGTTCACACTGTTCGCGATCGACCGGACGCAGCCGCTACGGAGCGCCGCCCGCGCGGGCGCGCGCATGGGCTGGCTGGCGGCCGCGCTGCTGGCCCTGGCCGCCTGCGGCGGCGGCTCGCCGGAGCAGCGCCTGCGCGCGTCGATGACCCAGTTGCAGGATGCTCGAGCGG (double strand) [pLe rpfB1 promoter]	binds
